From PubChem BioAssay record AID1347128 (NCATS, 2019).

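OHS-50 osteosarcoma cells exposed to compounds for 48 h at 37 °C; viability judged from a luminescence signal reporting metabolically active cells. Potency comes from a dilution series reaching mostly up to about 45.9 µM. Potency is the concentration giving half of the fitted maximal drop in viability; lower values mean stronger cytotoxic potency. Calls come from fitted curve class and a score; these rows are inconclusive (score 1–39), covering weaker, poorly fitted, top-dose-only or opposite-direction curves.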

Values are in µM. All entries here are filed as inconclusive. These entries are mostly ones the record files as inconclusive; other results of the assay are not listed here. Potencies fitted to partial, single-point or poorly fitting curves are rough. Some entries filed as inconclusive have a full curve. The first word of each remark tells which way the curve ran; it can be opposite to the aim of the assay. Activity scores are not listed here.

structure | potency (µM) | remark
COc1c(C)c2c(c(O)c1C/C=C(\C)CCC(=O)OCCN1CCOCC1)C(=O)OC2 | 2.614 | cytotoxic, full curve, poor fit
Cc1ccc(C(=O)Oc2ccc(C(O)CNC(C)(C)C)cc2OC(=O)c2ccc(C)cc2)cc1 (centres unmarked) | 13.1 | cytotoxic, partial curve
COc1cc([C@@H]2c3cc4c(cc3[C@@H](O[C@@H]3O[C@@H]5CO[C@@H](c6cccs6)O[C@@H]5[C@H](O)[C@@H]3O)[C@H]3COC(=O)[C@H]23)OCO4)cc(OC)c1O | 0.8266 | cytotoxic, full curve, poor fit
COC[C@H](NC(=O)c1cnc(C)s1)C(=O)N[C@@H](COC)C(=O)N[C@@H](Cc1ccccc1)C(=O)[C@@]1(C)CO1 | 0.3291 | cytotoxic, full curve, poor fit
O=C(Cc1ccc(-c2ccc(OCCN3CCOCC3)cc2)cn1)NCc1ccccc1 | 0.0928 | cytotoxic, full curve
O=C(CCCN1CCC(O)(c2ccc(Br)cc2)CC1)c1ccc(F)cc1 | 26.14 | cytotoxic, single point
Cc1ccc2nc(NC(=O)CSc3nc4c(c(=O)n3-c3ccccc3)SCC4)sc2c1 | 29.33 | cytotoxic, partial curve
C[C@@]12OC(=O)[C@]1([C@@H](O)[C@@H]1C=CCCC1)NC(=O)[C@H]2CCCl | 0.8266 | cytotoxic, full curve
NC(=O)c1cccc2cn(-c3ccc([C@@H]4CCCNC4)cc3)nc12 | 18.51 | cytotoxic, partial curve, poor fit
CN(C)CCCN=c1c2ccccc2n(C)c2[nH]c(=O)n(C)c(=O)c12 | 23.3 | cytotoxic, single point
O=C1NC(=O)[C@@H](c2cn3c4c(cccc24)CCC3)[C@H]1c1c[nH]c2ccccc12 | 1.649 | cytotoxic, full curve
O=C(C=Cc1ccc(CN(CCO)CCc2c[nH]c3ccccc23)cc1)NO | 0.0037 | cytotoxic, full curve, poor fit
C=C1C(=CC=C2CCC[C@]3(C)[C@@H]([C@H](C)C=C[C@H](C)C(C)C)CC[C@@H]23)C[C@@H](O)C[C@@H]1O | 29.33 | cytotoxic, partial curve, poor fit
Cc1ccc2nc(N)[nH]c(=O)c2c1Sc1ccncc1 | 32.91 | cytotoxic, single point
CCOc1cc2ncc(C#N)c(Nc3ccc(OCc4ccccn4)c(Cl)c3)c2cc1NC(=O)C=CCN(C)C | 4.143 | cytotoxic, full curve
CCC(C(=O)OCCN(CC)CC)c1ccccc1 (centres unmarked) | 0.0023 | rising, full curve, poor fit
CCN(CC)CCOc1ccc2c(c1)C(=O)c1cc(OCCN(CC)CC)ccc1-2 | 14.7 | cytotoxic, partial curve
CCC1=C[C@@H]2CN(C1)Cc1c([nH]c3ccccc13)[C@@](C(=O)OC)(c1cc3c(cc1OC)N(C)[C@H]1[C@@](O)(C(=O)OC)[C@H](OC(C)=O)[C@]4(CC)C=CCN5CC[C@]31[C@@H]54)C2 | 0.0233 | cytotoxic, full curve

Once more, the final 2:

{"structure": "CCN(CC)CCOc1ccc2c(c1)C(=O)c1cc(OCCN(CC)CC)ccc1-2", "potency (µM)": "14.7", "remark": "cytotoxic, partial curve"}
{"structure": "CCC1=C[C@@H]2CN(C1)Cc1c([nH]c3ccccc13)[C@@](C(=O)OC)(c1cc3c(cc1OC)N(C)[C@H]1[C@@](O)(C(=O)OC)[C@H](OC(C)=O)[C@]4(CC)C=CCN5CC[C@]31[C@@H]54)C2", "potency (µM)": "0.0233", "remark": "cytotoxic, full curve"}